Consider one molecule from paper PMC5742674.

For this test, the target named is T1, toll‐like receptor 3 (TLR3) (mouse (endogenous in heart tissue)) (UniProt Q99MB1).
T1 sequence: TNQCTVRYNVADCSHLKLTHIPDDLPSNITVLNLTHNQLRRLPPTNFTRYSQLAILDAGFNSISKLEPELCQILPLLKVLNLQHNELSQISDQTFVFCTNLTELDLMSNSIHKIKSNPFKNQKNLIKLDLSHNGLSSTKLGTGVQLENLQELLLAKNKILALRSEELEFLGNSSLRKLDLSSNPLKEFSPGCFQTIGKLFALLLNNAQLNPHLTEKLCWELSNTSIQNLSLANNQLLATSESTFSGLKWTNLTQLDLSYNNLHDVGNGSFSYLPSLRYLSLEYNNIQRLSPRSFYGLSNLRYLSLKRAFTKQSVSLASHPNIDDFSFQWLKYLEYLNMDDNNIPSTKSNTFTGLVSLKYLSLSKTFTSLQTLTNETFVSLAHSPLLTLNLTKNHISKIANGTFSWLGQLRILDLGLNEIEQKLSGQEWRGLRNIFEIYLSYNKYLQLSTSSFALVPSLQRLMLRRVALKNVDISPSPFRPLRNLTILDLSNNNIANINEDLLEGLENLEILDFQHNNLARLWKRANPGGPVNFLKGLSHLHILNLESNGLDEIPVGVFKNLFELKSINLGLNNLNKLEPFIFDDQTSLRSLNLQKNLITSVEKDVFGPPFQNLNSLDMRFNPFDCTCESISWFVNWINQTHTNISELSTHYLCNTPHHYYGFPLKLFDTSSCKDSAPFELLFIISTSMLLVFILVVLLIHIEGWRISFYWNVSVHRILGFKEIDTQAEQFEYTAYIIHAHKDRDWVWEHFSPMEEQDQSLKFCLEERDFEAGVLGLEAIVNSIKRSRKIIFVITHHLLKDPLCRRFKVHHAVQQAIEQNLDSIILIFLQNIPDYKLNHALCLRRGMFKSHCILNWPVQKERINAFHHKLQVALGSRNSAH
Kind of test: co-IP; mouse heart tissue lysates (RIPA buffer, 300 μg total protein; sham or infarct myocardium, 4 weeks after MI), pre-incubated with isotype IgG, precipitated with 6 μg anti-TLR3 antibody overnight at 4°C and protein G-agarose, then Western blot; IP with isotype IgG as control. (In general: Immunoblotting shows a protein as a band on a membrane.)

Results are given in words; binding and its absence hold for the method and conditions named. Binding seen in cells or lysates may run through a third protein. Some entries that bind do so weakly or less than the wild type.

B1: TIR‐domain‐containing adaptor inducing interferon‐β (Trif) (protein, UniProt Q80UF7 1-732)
chain: MDNPGPSLRGAFGILGALERDRLTHLKHKLGSLCSGSQESKLLHAMVLLALGQDTEARVSLESLKMNTVAQLVAHQWADMETTEGPEEPPDLSWTVARLYHLLAEENLCPASTRDMAYQVALRDFASQGDHQLGQLQNEAWDRCSSDIKGDPSGFQPLHSHQGSLQPPSASPAVTRSQPRPIDTPDWSWGHTLHSTNSTASLASHLEISQSPTLAFLSSHHGTHGPSKLCNTPLDTQEPQLVPEGCQEPEEISWPPSVETSVSLGLPHEISVPEVSPEEASPILPDALAAPDTSVHCPIECTELSTNSRSPLTSTTESVGKQWPITSQRSPQVPVGDDSLQNTTSSSPPAQPPSLQASPKLPPSPLSSASSPSSYPAPPTSTSPVLDHSETSDQKFYNFVVIHARADEQVALRIREKLETLGVPDGATFCEEFQVPGRGELHCLQDAIDHSGFTILLLTASFDCSLSLHQINHALMNSLTQSGRQDCVIPLLPLECSQAQLSPDTTRLLHSIVWLDEHSPIFARKVANTFKTQKLQAQRVRWKKAQEARTLKEQSIQLEAERQNVAAISAAYTAYVHSYRAWQAEMNKLGVAFGKNLSLGTPTPSWPGCPQPIPSHPQGGTPVFPYSPQPPSFPQPPCFPQPPSFPQPPSFPLPPVSSPQSQSFPSASSPAPQTPGPQPLIIHHAQMVQLGVNNHMWGHTGAQSSDDKTECSENPCMGPLTDQGEPLLETPE
Take B1: the binding entry is listed as “binds”.
